# Screening data

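Genome-wide siRNA knockdown in TC32 Ewing sarcoma cells, comparing luciferase light from an NR0B1-promoter reporter with a CMV-promoter reporter 48 hours after transfection.
Each siRNA was applied at 20 nM.
A z-score of the log NR0B1-over-CMV signal, less the median of siRNAs with the same seed; more negative means a stronger specific loss of the NR0B1 reporter.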

This is part of the screen; most of the strongest results are not listed here.
Sequences are the guide (antisense) strand, without overhang.

| Sequence | target gene | seed-corrected z-score |
|---|---|---|
| `AAAGUUCUUAAGCUUGCGC` | PRPF19 | -0.9388 |
| `AUAAGUACCAGAGCGAAUG` | CRYZ | -0.7951 |
| `AUUAGUCACAUAAUCUUCC` | DNAJB14 | 0.03663 |
| `UCCGAGAUUUUUGAGUUGG` | DNAH12 | -0.458 |
| `UUUGAGCUAAAGCCUGUUC` | LOC647145 | 0.6264 |
| `AUCAGGUCUUUGACAGUGC` | PHKG2 | -0.1189 |
| `AAAGGACCAGGUGUAGUCA` | COLGALT1 | 1.631 |
| `UCUGAUACCAGGUCUUCAC` | BARX2 | 0.007668 |
| `AUUCUAUUAAUGGAGCUGA` | PAX8 | 0.4451 |
| `UUUGACAUGAGGACGAUGG` | SPIC | 0.1008 |
| `AUAUCUUCAGGUUCGAGGG` | DCDC1 | 1.336 |
| `UUCAAUGAGGCCUGUAUUC` | ZKSCAN3 | -0.2285 |
| `AAUCUUCACUUUAACCUCC` | MORF4L2 | 0.5762 |
| `UCAGGUACCAGAGACCCUC` | PRSS8 | -1.062 |
| `UAUGUUUCAGAAUUAGCUG` | HSD17B3 | -0.4105 |
| `AAAGGUAUCCAGACCCUCC` | KLK9 | 0.08575 |
| `UCCGUGACCUGUAGAAUCG` | NFS1 | -0.0781 |
| `UACUAUUCUGAAUAGCUUC` | CUL4B | 0.6236 |
| `UGCAUAGUCAUGUUCAUUG` | EMC2 | 1.058 |
| `UCUUGGAACUCAUUGAAGC` | TMPRSS9 | 0.3601 |
| `UUGGGUUUCGGUACUAUGC` | SYNE1 | -1.154 |
| `AGAUGUAAUAGGCUCUUCU` | SOCS3 | -1.954 |
| `AUGGUGAUAAUACGACCCG` | FOXF2 | 0.1705 |
| `UGCUCUCUCACUGUUGUUA` | UQCRH | 0.002465 |
| `UUAGAGACGAAGAGGGACU` | ALDOA | 0.1019 |
| `AUAGAGUCCGGUAAGCUGC` | COG7 | 0.2618 |
| `AUAAUUGCAUGCUUUGUGG` | BMP10 | 0.5508 |
| `UGAAGAUUUAUAACCAGUG` | CADM3 | 0.8961 |
| `UAAAUGACUGUCAUCAGCA` | CYP2S1 | -0.6151 |
| `ACUGGUAAGAGAGAGGUCC` | MSX1 | -0.9517 |
| `UGUUCCACCAGUCCUAUCC` | PLA1A | 0.398 |
| `UCGGAUUUGAUCUCAGAGC` | TCF4 | 0.4872 |
| `AGAUGAUCAAUAACAACAG` | ADIG | -0.6598 |
| `UCUUCGGAAUGGACGUGCC` | CD82 | -0.211 |
| `UAAGAUCUCAGCUACUCCG` | COL15A1 | 0.1876 |
| `UGUACCUUCACUCUCCACC` | HELB | 0.4792 |
| `UAGCCGUUAAAUCUAUUCC` | SLC22A10 | 0.1116 |
| `UAAGAUACAGAUCUAGCCC` | TSC22D3 | 0.29 |
| `UCAGGUACUGCAGACGAGC` | GRASP | 0.2548 |
| `UGGAAUUCCACGGCUCUCU` | RAB5C | 1.107 |
| `UCUGAUUGGACCCACAGCC` | SWI5 | -1.455 |
| `AUAUUGUUUCUCCAUAGUG` | ZNF181 | 0.04256 |
| `UGACUGUUCAGGUACAGUG` | SNAPC5 | -0.9082 |
| `UGUAAUUAACACUUUGUCC` | DUSP16 | -0.9012 |
| `UAACCUCAACCCUUCCUCC` | CBX7 | 1.721 |
| `UUCCGUGUUGCCGACAUCC` | MYBPC3 | -0.3906 |
| `UUUGGGAUUCGACGAACUC` | SETMAR | 0.1097 |
| `AUAUCUCCUAGUCUUUCGG` | FAM174A | 1.122 |
| `UUCCAUUUGCCGCUUCUCC` | FAM32A | 1.553 |
| `UACCGUGACAGCGGAAGUG` | RPL37A | -1.567 |
| `AAACUGAUCAGAUUCUUCU` | AKR1E2 | 0.3848 |
| `UGUACAUCUGCCUAUAUUC` | RPL7P9 | -1.411 |
| `UUUGGAAGCAUCCACCAUC` | DTYMK | 1.076 |
| `UUUGUAGUGAAGACACUCG` | IL3RA | 0.7038 |
| `AUAGUGCUUUCUGAGACCC` | TMEM108 | 0.6086 |
| `UGCAUUUCCUUUGUCCACG` | LINC00442 | -1.758 |
| `UUCGUUGUAAUAUCUGUCG` | ROBO3 | -1.964 |
| `UGAAGGCCGAUGACAGAAC` | TUT1 | 0.525 |
| `AUCCCUAUCGUUGAGAUCG` | TMEM207 | 0.7795 |
| `UCAUUUAAUGCAGUCGGCC` | CEACAM18 | 0.05191 |
| `UUACUCUGAGGAUCAAUGC` | PTPRU | -0.6648 |
| `UUUGAUGAUUGGGCUGUAC` | SH2D2A | -0.6551 |

For reference, 5 entries once more:

Sequence,target gene,seed-corrected z-score
UAAGAUACAGAUCUAGCCC,TSC22D3,0.29
AUAAGUACCAGAGCGAAUG,CRYZ,-0.7951
UUUGGAAGCAUCCACCAUC,DTYMK,1.076
AAAGUUCUUAAGCUUGCGC,PRPF19,-0.9388
AUAGAGUCCGGUAAGCUGC,COG7,0.2618

Source: PubChem BioAssay AID1159506 (NCATS, 2015).